Data reported in PubChem BioAssay AID493014 (National Center for Advancing Translational Sciences (NCATS), 2011).
Hit rate of the full screen: of about 340,000 compounds, about 170 (0.05%) were called active. The shares of active, inactive and inconclusive entries below differ from those in the screen. Calls come from the whole dose curve; as a rule, active = well fitted inhibition curve with a large enough effect in the signal ratio, with a control signal flat (not every such curve was filed as active); inconclusive = small, poorly fitted or top-dose-only effect, or effect the other way, or a change in a side signal; inactive = flat fitted curve, though single readings scatter; the % refers to the signal ratio. A potency beside an inconclusive call is a rough fit, not a confirmed value.

experiment: qHTS Assay to Find Inhibitors of Chronic Active B-Cell Receptor Signaling; settings: ABC-DLBCL IkBa-CBG/CBR reporter, luminescence ratio (green luciferase fused to IkBa over red control in TMD8 lymphoma cells), 4 h; activity change, negative = inhibition: at 46.1 µM (top of the series) unless noted;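 for activity change, negative = inhibition: plate controls were basal doxycycline-induced cells for no effect and cells given 10 µM MG132 for full effect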
Summary of the method: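 Cell line TMD8 (human ABC DLBCL), stably expressing tet-inducible CBG68-IkBa fusion and CBR; IMDM/0.5% FBS; cpd up to 46 uM; dox induction, 4 h, 37C/5% CO2; dual luminescence; green/red ratio; MG132 control.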
Potency is the fitted concentration of half-maximal effect.

SMILES | activity change, negative = inhibition | Potency
CCOC(=O)CSc1nnc(CNc2ccc(Cl)cc2)n1-c1ccccc1 | inconclusive: -18.8% | –
O=C1C(NS(=O)(=O)c2ccccc2)=C(N2CCN(c3ccc(F)cc3)CC2)C(=O)c2ccccc21 | inconclusive: 17.8% | –
CCCCc1ccc(Nc2ncnc3nc[nH]c23)cc1 | – | inconclusive: 0.231 µM [rising, full curve, poor fit]
CCN1CCN(c2ccc(NC(=O)c3ccc([N+](=O)[O-])o3)cc2Cl)CC1 | inconclusive: -28.8% | –
NNc1nc(-c2ccccc2)cc(-c2ccc(Br)cc2)n1 | inconclusive: -8.04% | –
CC1CCC(N2CCN(S(C)(=O)=O)CC2)CC1 (centres undefined) | inactive: 11.9% | –
Nc1ccc2oc(-c3ccccn3)nc2c1 | inconclusive: 25.4% | –
Cc1c(NC(=O)c2ccc(Cl)nc2)cccc1-c1nc2cccnc2s1 | inconclusive: 3.53% | –
COc1ccc(-c2nc(-c3ccccc3)c(-c3cc([N+](=O)[O-])ccc3C)[nH]2)cc1O | inconclusive: 4.26% | –
CCCCCCNC(=O)CCCCCNS(=O)(=O)c1ccc(Br)cc1 | inactive: 6.35% | –
CCc1ccccc1OC[C@@H](O)CN[C@H]1CCCc2ccccc21 | inconclusive: 0.285% | –
COc1ccc(C(=O)OCC(=O)c2cc(OC)ccc2OC)c(OC)c1 | – | inconclusive: 22.4 µM [falling, partial curve, poor fit]
Cc1ccc(CCc2nnc(SCC(=O)Nc3ccccc3Cl)n2-c2ccccc2)o1 | inconclusive: -17.8% | –
O=C(O)c1ccc2noc(-c3ccccc3)c2c1 | – | inconclusive: 1.46 µM [rising, full curve, poor fit]
CC(C)(C)C(=O)Nc1ccc(-c2cc3cc(Cl)ccc3o2)cc1 | inconclusive: 4.39% | –
COc1ccccc1N(C(=O)CNS(=O)(=O)c1ccccc1)C(C(=O)NCc1ccco1)C(C)C (centres undefined) | inconclusive: 0.239% | –
CCN1C(=O)CC(N2CCN(c3cccc(OC)c3)CC2)C1=O (centres undefined) | inconclusive: 15.5% | –
COc1ccc(N2CCN(C(=O)c3ccc(NS(=O)(=O)c4cccc(F)c4)cc3)CC2)cc1 | inconclusive: 8.37% | –
CCC(=O)Nc1cccc(NC(=S)NC(=O)c2cccc(C)c2)c1 | – | inconclusive: 13 µM [falling, partial curve, poor fit]
O=C(Cn1c(-c2ccccn2)nc2ccccc21)N/N=C/c1cccnc1 | inconclusive: 1.76% | –
N#Cc1ccc(OCC(=O)NCC(c2cccs2)N2CCOCC2)cc1 (centres undefined) | inactive: 3.53% | –
CS(=O)(=O)Nn1cnc2ccccc2c1=O | inconclusive: 0.272% | –
CCN(C(=O)Nc1cccc(Cl)c1)c1ccccc1 | inconclusive: 13% | –
O=C(COC(=O)Cc1ccc(Cl)cc1Cl)Nc1ccc(OC(F)F)cc1 | inactive: 2.1% | –
COc1ccc(/C=C2\SC(=S)N(CC3CCCO3)C2=O)cc1 (centres undefined) | inconclusive: 20.1% | –
COc1c2occc2cc2ccc(=O)oc12 | inconclusive: 15% | –
CCOC(=O)c1c(C)[nH]c(C(=O)OCc2ccc(F)cc2)c1C | inconclusive: 3.01% | –

3 compounds out of the list, arranged by count of non-hydrogen atoms, high to low:
SMILES | activity change, negative = inhibition | Potency
CCOC(=O)CSc1nnc(CNc2ccc(Cl)cc2)n1-c1ccccc1 | inconclusive: -18.8% | –
NNc1nc(-c2ccccc2)cc(-c2ccc(Br)cc2)n1 | inconclusive: -8.04% | –
O=C(O)c1ccc2noc(-c3ccccc3)c2c1 | – | inconclusive: 1.46 µM [rising, full curve, poor fit]

(cont.)

SMILES | activity change, negative = inhibition | Potency
Cc1ccc(CCNC(=O)NC(C)(C)C)cc1 | inconclusive: 0.645% | –
O=C(Oc1c(Cl)cc(Cl)c2cccnc12)N1CCCCC1 | inconclusive: 0.286% | –
CCOC(=O)c1c(OCCO)nn(-c2ccccc2)c1N | – | inconclusive: 35.5 µM [falling, single point]
Cc1ccc(-n2cc(-c3ccccc3)[nH]c2=O)cc1F | inconclusive: -2.12% | –
Brc1ccc(OCc2nc3ccccc3[nH]2)cc1 | – | inconclusive: 35.5 µM [falling, single point]
CCCC(=O)N(c1ccc2oc(C)c(C(C)=O)c2c1)S(=O)(=O)c1ccc(C(=O)O)cc1 | inconclusive: -0.499% | –
O=C(NC(=S)NCc1ccc(F)cc1)c1ccccc1 | inconclusive: 3.18% | –
O=S(=O)(c1cccc(Cl)c1)N1CN(CC2CCCO2)c2nc3ccccc3nc21 (centres undefined) | inconclusive: 9.44% | –
CC1CCCN(CCCNS(=O)(=O)c2cc(Br)cc3c2N(C(=O)C2CC2)CC3)C1 (centres undefined) | inactive: 1.86% | –
CCc1cc2cc(C)ccc2nc1SCC(=O)N1CCN(C(=O)c2ccco2)CC1 | inconclusive: 0.833% | –
CCCc1nnc(SCCSc2nnc(CCC)n2N)n1N | inactive: 2.02% | –
COc1ccc(NC(=O)CSc2ncccc2C(=O)OC(C)C)cc1OC | inconclusive: -5.62% | –
CCOC(=O)CSc1nc2ccccc2c(=O)n1C1CCCC1 | inactive: -9.13% | –
CN1/C(=C/C=N/n2cnnc2)C(C)(C)c2ccccc21 | – | inconclusive: 4.61 µM [rising, full curve, poor fit]
COC(=O)c1cc(CNC(=O)C2CC(=O)N(c3ccc4c(c3)OCCO4)C2)ccc1OC (centres undefined) | inconclusive: 1.22% | –
O=[N+]([O-])c1cc(C(F)(F)F)ccc1NC1CCN(Cc2ccccc2)C1 (centres undefined) | inactive: -0.826% | –
CN(C)S(=O)(=O)c1ccc2[nH]cc(/C=C/c3nc4ccccc4c(=O)n3-c3ccccc3)c2c1 | inconclusive: 6.82% | –
CCc1ccc(NC(=S)N2CCCC(C(F)(F)F)C2)cc1 (centres undefined) | inconclusive: 9.81% | –
Cc1ccc(C(=O)OCC(=O)c2ccc(CC(=O)N3CCOCC3)s2)c(C)c1 | inactive: 0.236% | –
CC(=O)C1=C(O)C(=O)N(c2ccccn2)C1c1ccc(C)cc1 (centres undefined) | inactive: 0.226% | –
CN1C2C=C3C(C#N)=C(N)C(C#N)(C#N)[C@@H](c4ccsc4)[C@@H]3C1CC2 (some centres undefined) | inconclusive: 8.11% | –
O=C(OCC(=O)c1ccc[nH]1)c1ccccc1 | – | inconclusive: 25.1 µM [falling, partial curve]
CCOC(=O)/C(=N\Nc1ccccc1[N+](=O)[O-])c1csc(Nc2ccccc2)n1 | inconclusive: 10% | –
COCCSc1ccccc1C(=O)Nc1cc([N+](=O)[O-])ccc1OC | inconclusive: 0.269% | –
COc1ccc(-c2noc(-c3ccoc3C)n2)cc1 | – | inconclusive: 0.501 µM [rising, full curve, poor fit]
CC1=C(C#N)C(c2cn(-c3ccccc3)nc2-c2cccs2)C(C#N)=C(C)N1 | inconclusive: -6.14% | –
Cn1ncc2cc(NC(N)=S)ccc21 | – | inconclusive: 8.91 µM [falling, partial curve]
